Data as given in PubChem BioAssay AID1224830 (NIAID, 2016)

Assay: 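Genes whose knock-down alters the TNF-alpha reporter response to LPS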 (primary screen)
System: human THP-1 monocytic leukaemia cells, TNF dual-luciferase reporter clone, PMA-differentiated to macrophage-like cells
Knock-down reagent: siRNA pool against human genes, 50 nM
Timing: LPS for 4 h, given about 3 days after siRNA transfection
Treatment: bacterial LPS (TLR4 ligand), 10 ng/ml
Detection: 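Ratio of firefly to renilla light, scaled to the plate median and expressed as a robust z-score per replicate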
Reading the numbers: TNF reporter robust z-score: higher = stronger TNF reporter response to LPS
Call rule: 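a well is active when its z-score exceeds 2.8 or falls below -1.5; control wells carry no call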
This is an unselected part of about 18,000 reagents tested. About 2,900 of all reagents (16%) were called active. 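Calls are made per well; low scores hint the gene aids the LPS response, high scores that it dampens it.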 Repeated entries: four replicate wells of each siRNA pool. Reagent sequences are not shown.

How did the screen score MUC20 (mucin 20, cell surface associated)?
TNF reporter robust z-score: 2.27; outcome: inactive

With MUC20 (mucin 20, cell surface associated), what does the deposit list?
TNF reporter robust z-score: 0.06; outcome: inactive

Which result is listed for MUC20 (mucin 20, cell surface associated)?
TNF reporter robust z-score: 0.09; outcome: inactive

What did the screen give for MUC20 (mucin 20, cell surface associated)?
TNF reporter robust z-score: 0.18; outcome: inactive

With C6orf62 (chromosome 6 open reading frame 62), how do the results read?
TNF reporter robust z-score: 0.48; outcome: inactive

With C6orf62 (chromosome 6 open reading frame 62), what does the deposit list?
TNF reporter robust z-score: 0.64; outcome: inactive

Which result is listed for C6orf62 (chromosome 6 open reading frame 62)?
TNF reporter robust z-score: 0.72; outcome: inactive

With C6orf62 (chromosome 6 open reading frame 62), how do the results read?
TNF reporter robust z-score: 0.56; outcome: inactive

Which result is listed for ALS2 (alsin Rho guanine nucleotide exchange factor ALS2)?
TNF reporter robust z-score: -1.73; outcome: active

With ALS2 (alsin Rho guanine nucleotide exchange factor ALS2), how do the results read?
TNF reporter robust z-score: -1.56; outcome: active

For ALS2 (alsin Rho guanine nucleotide exchange factor ALS2), what does the deposit list?
TNF reporter robust z-score: -1.77; outcome: active

How did the screen score ALS2 (alsin Rho guanine nucleotide exchange factor ALS2)?
TNF reporter robust z-score: -0.99; outcome: inactive

How did the screen score CEBPG (CCAAT enhancer binding protein gamma)?
TNF reporter robust z-score: -0.94; outcome: inactive

With CEBPG (CCAAT enhancer binding protein gamma), what was measured?
TNF reporter robust z-score: 0.05; outcome: inactive

With CEBPG (CCAAT enhancer binding protein gamma), what was measured?
TNF reporter robust z-score: -0.5; outcome: inactive

What is on record for CEBPG (CCAAT enhancer binding protein gamma)?
TNF reporter robust z-score: -0.49; outcome: inactive

With ITGB3BP (integrin subunit beta 3 binding protein), how do the results read?
TNF reporter robust z-score: -0.79; outcome: inactive

With ITGB3BP (integrin subunit beta 3 binding protein), how do the results read?
TNF reporter robust z-score: -1.08; outcome: inactive

What did the screen give for ITGB3BP (integrin subunit beta 3 binding protein)?
TNF reporter robust z-score: -0.59; outcome: inactive

What did the screen give for ITGB3BP (integrin subunit beta 3 binding protein)?
TNF reporter robust z-score: -0.78; outcome: inactive

For GIGYF2 (GRB10 interacting GYF protein 2), what does the deposit list?
TNF reporter robust z-score: 0.04; outcome: inactive

For GIGYF2 (GRB10 interacting GYF protein 2), what does the deposit list?
TNF reporter robust z-score: 1.62; outcome: inactive

What did the screen give for GIGYF2 (GRB10 interacting GYF protein 2)?
TNF reporter robust z-score: 0.96; outcome: inactive

For GIGYF2 (GRB10 interacting GYF protein 2), how do the results read?
TNF reporter robust z-score: -0.34; outcome: inactive

What did the screen give for POLR1E (RNA polymerase I subunit E)?
TNF reporter robust z-score: -0.47; outcome: inactive

For POLR1E (RNA polymerase I subunit E), how do the results read?
TNF reporter robust z-score: 0.33; outcome: inactive

How did the screen score POLR1E (RNA polymerase I subunit E)?
TNF reporter robust z-score: -0.15; outcome: inactive

What did the screen give for POLR1E (RNA polymerase I subunit E)?
TNF reporter robust z-score: -0.43; outcome: inactive

What did the screen give for PDE1A (phosphodiesterase 1A)?
TNF reporter robust z-score: 0.1; outcome: inactive

For PDE1A (phosphodiesterase 1A), what does the deposit list?
TNF reporter robust z-score: 1.11; outcome: inactive

What did the screen give for PDE1A (phosphodiesterase 1A)?
TNF reporter robust z-score: 0.05; outcome: inactive

For PDE1A (phosphodiesterase 1A), what was measured?
TNF reporter robust z-score: 1.02; outcome: inactive

Records listed so far whose target name begins with I or i:
ITGB3BP (integrin subunit beta 3 binding protein): TNF reporter robust z-score = -0.79; outcome = inactive
ITGB3BP (integrin subunit beta 3 binding protein): TNF reporter robust z-score = -1.08; outcome = inactive
ITGB3BP (integrin subunit beta 3 binding protein): TNF reporter robust z-score = -0.59; outcome = inactive
ITGB3BP (integrin subunit beta 3 binding protein): TNF reporter robust z-score = -0.78; outcome = inactive

Next entries:
For TMPRSS3 (transmembrane serine protease 3), what was measured?
TNF reporter robust z-score: -1.23; outcome: inactive

What did the screen give for TMPRSS3 (transmembrane serine protease 3)?
TNF reporter robust z-score: -0.59; outcome: inactive

With TMPRSS3 (transmembrane serine protease 3), what was measured?
TNF reporter robust z-score: 0.07; outcome: inactive

How did the screen score TMPRSS3 (transmembrane serine protease 3)?
TNF reporter robust z-score: -0.49; outcome: inactive

With KLF15 (KLF transcription factor 15), what was measured?
TNF reporter robust z-score: -0.69; outcome: inactive

For KLF15 (KLF transcription factor 15), how do the results read?
TNF reporter robust z-score: -0.47; outcome: inactive

What is on record for KLF15 (KLF transcription factor 15)?
TNF reporter robust z-score: -1.11; outcome: inactive

With KLF15 (KLF transcription factor 15), how do the results read?
TNF reporter robust z-score: -0.34; outcome: inactive

With CLDN4 (claudin 4), how do the results read?
TNF reporter robust z-score: -0.36; outcome: inactive

With CLDN4 (claudin 4), what was measured?
TNF reporter robust z-score: 0.97; outcome: inactive

For CLDN4 (claudin 4), what does the deposit list?
TNF reporter robust z-score: -0.63; outcome: inactive

How did the screen score CLDN4 (claudin 4)?
TNF reporter robust z-score: -0.45; outcome: inactive

With ACADSB (acyl-CoA dehydrogenase short/branched chain), what does the deposit list?
TNF reporter robust z-score: -1.19; outcome: inactive

What is on record for ACADSB (acyl-CoA dehydrogenase short/branched chain)?
TNF reporter robust z-score: -0.97; outcome: inactive

What is on record for ACADSB (acyl-CoA dehydrogenase short/branched chain)?
TNF reporter robust z-score: -1.11; outcome: inactive

How did the screen score ACADSB (acyl-CoA dehydrogenase short/branched chain)?
TNF reporter robust z-score: -0.24; outcome: inactive
